Measurements published in patent publication US20240376143A1, “SELECTION INHIBITION OF DNA POLYMERASE BETA BY A COVALENT INHIBITOR” (The Johns Hopkins University, priority 2021, published 2024).
For at least one compound, name, drawing or mass did not settle the structure.

Amino acid sequences for entries named in this document (tags omitted). Residues count along the entry.
UniProt P00582, 324-928 D355A/E357A limits assumed: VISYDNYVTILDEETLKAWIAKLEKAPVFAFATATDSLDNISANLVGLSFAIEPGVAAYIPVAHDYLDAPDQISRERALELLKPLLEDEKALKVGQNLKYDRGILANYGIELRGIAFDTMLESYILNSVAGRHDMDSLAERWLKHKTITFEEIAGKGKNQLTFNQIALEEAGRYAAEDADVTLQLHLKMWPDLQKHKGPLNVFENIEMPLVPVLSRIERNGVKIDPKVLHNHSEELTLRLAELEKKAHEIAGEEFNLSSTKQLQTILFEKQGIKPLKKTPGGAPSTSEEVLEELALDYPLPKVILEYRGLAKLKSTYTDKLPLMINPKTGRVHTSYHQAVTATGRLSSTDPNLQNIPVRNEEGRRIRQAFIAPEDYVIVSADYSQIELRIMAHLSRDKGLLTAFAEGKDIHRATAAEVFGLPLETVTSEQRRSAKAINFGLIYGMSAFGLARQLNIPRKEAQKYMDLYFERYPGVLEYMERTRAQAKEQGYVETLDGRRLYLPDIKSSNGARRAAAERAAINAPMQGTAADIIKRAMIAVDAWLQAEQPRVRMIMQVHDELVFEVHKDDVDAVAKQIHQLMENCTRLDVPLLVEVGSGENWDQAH

Target: T1, Klenow exo- (Escherichia coli, UniProt P00582, D355A/E357A)
T1 construct: a model replicative polymerase (Klenow exo-); purchased New England Biolabs
Assay: strand displacement assay with Klenow exo-
Format: biochemical

O=C(NC1CC(n2cc(CNC(=O)c3cc4cc(Br)ccc4c(Br)c3O)c(=O)[nH]c2=O)OC1COP(=O)(O)OCC1CC(O)OC1O)c1cc(-c2ccc(Cl)cc2)oc1C(F)(F)F (centres unmarked) [Compound 14]
effect on Klenow exo- activity (500 nM, 20 min preincubation): no effect | effect on Klenow exo- activity (10 μM): no effect
